What all share (test): normalised response (% of control), CellTox Green; higher = less cell death (100 = DMSO, 0 = benzethonium chloride kill control)
Holding throughout (settings): incubation time: 72 h

Test [1] has as its system HDQ-P1. As for the experimental part: (§1)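 DSRT, 72 h incubation, CellTox Green / CellTiter-Glo readout. Signal is normalised to DMSO and benzethonium chloride controls. Value is the normalised response at the lowest tested concentration.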
The subject of test [2] is CAL-51. As to the method:
as §1

Test [3] relates to BT-549. As to the method:
as §1

Test [4] has as its system MDA-MB-231. As to the method:
as §1

Test [5] relates to DU-4475. As to the method:
as §1

Test [6] has as its system MFM-223. As for the experimental part:
as §1

Test [7] relates to HCC1599. As for the experimental part: as §1
Test [8] relates to CAL-120. As for the experimental part: as §1
Test [9] concerns Hs578T. As to the method:
as §1

Test [10] deals with BT-474. As to the method:
as §1

The test system of test [11] is CAL-148. As for the experimental part:
as §1

Test [12] relates to MDA-MB-453. As for the experimental part: as §1
Test [13] concerns CAL-85-1. As to the method:
as §1

In test [14] the test system is HCC1143. As for the experimental part: as §1
Test [15] has as its system MCF-10A. As to the method:
as §1

For test [16], the system named is MDA-MB-436. As to the method: as §1
The subject of test [17] is MDA-MB-468. As to the method: as §1
The subject of test [18] is HCC1937. As for the experimental part:
as §1

Most entries show no effect beyond the scatter of the controls.

Consider `COc1ccc(-c2cc3c(C)nc(N)nc3n([C@H]3CC[C@H](OCCO)CC3)c2=O)cn1` (1 nM), for which the normalised response in test [1] worked out at 77%; in test [2], 110%; in test [3], 98.8%; in [4] it was 105%; in test [5], 97.1%; in test [6], 82%. Also, the normalised response in [7] was 82.5%; in test [8], 95.8%; in [9], 94.1%; in test [10], 91.2%; in test [11] it was 85%; in test [12], 98%. Further, the normalised response was 105% in test [13]; 111% in test [14]; 103% in [15]; 78.6% in test [16]; 55.4% in test [17]; 91.8% in [18].

Consider `Nc1ncnc2c1c(COc1cccc(Cl)c1)nn2C1CCOCC1` (1 nM), for which the normalised response in [1] is 104%; in test [2], 112%; in [3] it was 105%; in test [4], 112%; in test [5], 117%; in test [6] it was 106%. Further, the normalised response in test [7] worked out at 117%; in test [8], 110%; in [9], 108%; in [10], 101%; in test [11], 81%; in [12], 109%. The normalised response in test [13] amounted to 103%; in [14], 128%; in test [15] it was 74.4%; in test [16], 91.9%; in test [17] it was 75.9%; in test [18] it was 98%.

On to `CCc1cnn2c(NCc3ccc[n+]([O-])c3)cc(N3CCCC[C@H]3CCO)nc12` [Dinaciclib] (0.1 nM), for which the normalised response in test [1] was 87.9%; in test [2], 90.8%; in test [3], 92.6%; in test [4], 120%; in test [5] it was 109%; in test [6], 79.9%. The normalised response in test [7] was 113%; in test [8], 107%; in [9], 115%; in [10], 98.8%; in [11] it was 85.3%; in [12], 102%. Further, the normalised response is 97.3% in test [13]; 127% in test [14]; 111% in [15]; 90% in test [16]; 86.5% in test [17]; 115% in [18].

For `CO[C@H]1C[C@@H]2CC[C@@H](C)[C@@](O)(O2)C(=O)C(=O)N2CCCC[C@H]2C(=O)O[C@H]([C@H](C)C[C@@H]2CC[C@@H](OCCO)[C@H](OC)C2)CC(=O)[C@H](C)/C=C(\C)[C@@H](O)[C@@H](OC)C(=O)[C@H](C)C[C@H](C)/C=C/C=C/C=C/1C` [Everolimus] (0.01 nM), the normalised response worked out at 86.4% in test [1]; 122% in [2]; 98.6% in test [3]; 92.3% in test [4]; 95.5% in [5]; 100% in test [6]. In addition, the normalised response in test [7] came to 85.7%; in [8], 101%; in [9] it was 77.7%; in test [10] it was 99.3%; in [11] it was 98.9%; in [12] it was 105%. Also, the normalised response in [13] was 93.7%; in test [14], 104%; in test [15] it was 71%; in test [16], 90%; in [17], 92.8%; in [18], 76.5%.

As to `COc1cc2c(Oc3ccc(NC(=O)C4(C(=O)Nc5ccc(F)cc5)CC4)cc3F)ccnc2cc1OCCCN1CCOCC1` [Foretinib] (0.1 nM), the normalised response in [1] is 104%; in test [2], 98.8%; in test [3] it was 96.1%; in test [4] it was 74.6%; in test [5], 99.2%; in [6], 105%. Besides, the normalised response in [7] turned out to be 103%; in test [8], 100%; in test [9], 99.2%; in test [10], 101%; in [11], 83.9%; in test [12], 99.2%. Also, the normalised response in [13] amounted to 105%; in test [14] it was 111%; in [15], 104%; in [16], 72.6%; in [17], 107%; in test [18], 93%.

Regarding `O=NN(CCCl)C(=O)NC1CCCCC1` [Lomustine] (1 nM), the normalised response in [1] came to 76.1%; in [2], 103%; in test [3] it was 71.6%; in test [4] it was 74%; in test [5] it was 101%; in [7], 102%. For the same molecule, the normalised response came out at 101% in test [8]; 93.7% in test [9]; 98.5% in test [10]; 90% in test [11]; 73.2% in test [12]; 101% in test [13]. The normalised response came out at 63.5% in test [14]; 107% in test [15]; 90.6% in [16]; 59.5% in [17]; 93.6% in test [18].

Take `CCN(CC)CCNC(=O)c1c(C)[nH]c(/C=C2\C(=O)Nc3ccc(F)cc32)c1C` [Sunitinib] (0.1 nM): the normalised response in [1] is 86.5%; in test [2] it was 105%; in test [3], 98.3%; in [4], 108%; in test [5], 99.6%; in test [6], 98.8%. Further, the normalised response in test [7] is 98.9%; in test [8], 97.4%; in test [9], 91.2%; in [10], 103%; in [11], 94.5%; in test [12], 108%. Besides, the normalised response in test [13] turned out to be 97.5%; in test [14], 116%; in [15], 64.2%; in test [16] it was 65.4%; in [17], 61.4%; in test [18] it was 102%.
